Measured values: patent publication US9089133B2, “Insecticide for agricultural or horticultural use and method of use thereof” (MITSUI CHEMICALS, INC., priority 2003, dated 2015)
Some results were stated once for a whole list of compounds, not compound by compound.

Tested on: Common Cutworm (Spodoptera litura)
Test: Insecticidal test for common cutworm (cabbage leaf dip)
Format: in vivo
Conditions: 1000 ppm; cabbage leaf immersed 30 seconds; 2nd-instar larvae; 25° C.; three days after
Experimental: Insecticidal Test for Common Cutworm (Spodoptera litura)
(§1) A cabbage leaf piece was immersed in a solution prepared by diluting a test compound to a predetermined concentration for 30 seconds, and then dried in air. Then, the cabbage leaf piece was placed in a polyethylene cup of 7 cm-size in which 2nd-instar larvae of common cutworm were placed. The cup was allowed to stand in a thermostatic chamber at 25° C. Three days after, the numbers of living and dead larvae were counted. The test was carried out in two replications each containing five larvae.

Structure (SMILES) | mortality [%]
Cc1cc(-c2cc(C)c(NC(=O)c3cccc(NC(=O)OCC(Cl)(Cl)Cl)c3)c(C)c2)ccc1F [compound 892] | ≥ 70
CC(C)OC(=O)Nc1cccc(C(=O)Nc2c(F)c(F)c(F)c(F)c2F)c1 [compound 846] | ≥ 70
CN(C(=O)OCC(Cl)(Cl)Cl)c1cccc(C(=O)Nc2c(Br)cc(SC(F)(F)C(F)(F)C(F)(F)F)cc2Br)c1 [compound 1948] | ≥ 70
Cc1c(CCl)c(C(F)(C(F)(F)F)C(F)(F)F)cc(Cl)c1NC(=O)c1cccc(NC(=O)OCC(Cl)(Cl)Cl)c1 [Compound No. 216] | ≥ 70
CCC(C)c1cc(C(F)(C(F)(F)F)C(F)(F)F)cc(Br)c1NC(=O)c1cccc(NC(=O)OCC(Cl)(Cl)Cl)c1 (stereo not drawn) [compound 856] | ≥ 70
C=COC(=O)Nc1cccc(C(=O)Nc2ccc(C(F)(F)F)cc2C(F)(F)F)c1 [compound 241] | ≥ 70
Cc1cc(OC(F)(F)F)cc(Cl)c1NC(=O)c1cccc(NC(=O)OCC(Cl)(Cl)Cl)c1 [compound 905] | ≥ 70
N#Cc1ccc(COC(=O)Nc2cccc(C(=O)Nc3ccc(C(F)(F)F)cc3C(F)(F)F)c2)cc1 [compound 251] | ≥ 70
CCCCc1cc(C(F)(C(F)(F)F)C(F)(F)F)cc(Cl)c1NC(=O)c1cccc(NC(=O)OCC(Cl)(Cl)Cl)c1 [compound 854] | ≥ 70
Cc1cc(C(F)(C(F)(F)F)C(F)(F)F)cc(Cl)c1NC(=O)c1cccc(NC(=O)OC(C)C)c1 [compound 1198] | ≥ 70

Tested on: Diamondback Moth (Plutella xylostella)
Test: Insecticidal test for diamondback moth (cabbage leaf dip)
Format: in vivo
Conditions: 1000 ppm; cabbage leaf immersed 30 seconds; 2nd-instar larvae; 25° C.; three days after
Experimental: Insecticidal Test for Diamondback Moth (Plutella xylostella)
as §1, with “cabbage leaf pieces was immersed” for “cabbage leaf piece was immersed”, “Then, the leaf piece” for “Then, the cabbage leaf piece”

Structure (SMILES) | mortality [%]
CC(C)OC(=O)Nc1cccc(C(=O)Nc2ccc(C(F)(C(F)(F)F)C(F)(F)F)c(Cl)c2)c1 [compound 171] | ≥ 70
O=C(Nc1cccc(C(=O)Nc2c(Cl)c(Br)nn2-c2ncccc2Cl)c1)OCC(Cl)(Cl)Cl [compound 941] | ≥ 70
Cc1cc(Cl)ncc1NC(=O)c1cccc(NC(=O)OCC(Cl)(Cl)Cl)c1 [compound 945] | ≥ 70
Cc1cc(C(F)(C(F)(F)F)C(F)(F)F)ccc1NC(=O)c1cccc(NC(=O)OCC(C)(C)C)c1 [Compound No. 8] | ≥ 70
Cc1cc(C(F)(C(F)(F)F)C(F)(F)F)cc(C)c1NC(=O)c1cc(N)cc(NC(=O)OC(C)C)c1 [compound 1928] | ≥ 70
COC(=O)c1c(C(F)(F)F)nn(C)c1NC(=O)c1cccc(NC(=O)OCC(Cl)(Cl)Cl)c1 [compound 939] | ≥ 70
Cc1cc(I)cc(Cl)c1NC(=O)c1cccc(NC(=O)OCC(Cl)(Cl)Cl)c1 [compound 908] | ≥ 70
Cc1cc(Cl)nc(Br)c1NC(=O)c1cccc(NC(=O)OCC(Cl)(Cl)Cl)c1 [compound 947] | ≥ 70
Cc1cc(C(F)(C(F)(F)F)C(F)(F)F)cc(C)c1NC(=O)c1cccc(NC(=O)OCC2CCCO2)c1 (stereo not drawn) [compound 157] | ≥ 70
Cc1cc(C(F)(C(F)(F)F)C(F)(F)F)cc(C)c1NC(=O)c1cccc(NC(=O)OC2CCCCC2)c1 [compound 80] | ≥ 70
Cc1c(C(F)(C(F)(F)F)C(F)(F)F)cc(Cl)c(NC(=O)c2cccc(NC(=O)OC(C)C)c2)c1C [compound 183] | ≥ 70
Cc1cc(OC(F)(F)F)ccc1NC(=O)c1cccc(NC(=O)OC(C)C)c1 [compound 820] | ≥ 70
Cc1cc(I)cc(C)c1NC(=O)c1cccc(NC(=O)OC(C)C)c1 [compound 829] | ≥ 70
COCCOC(=O)Nc1cccc(C(=O)Nc2c(C)cc(C(F)(C(F)(F)F)C(F)(F)F)cc2C)c1 [compound 95] | ≥ 70
Cc1cc(C(F)(C(F)(F)F)C(F)(F)F)ncc1NC(=O)c1cccc(NC(=O)OCC(Cl)(Cl)Cl)c1 [compound 942] | ≥ 70
O=C(Nc1cccc(C(=O)Nc2ccc(Br)cc2OC(F)(F)F)c1)OCC(Cl)(Cl)Cl [compound 868] | ≥ 70
Cc1cc(OC(C(F)(F)F)C(F)(F)F)ncc1NC(=O)c1cccc(NC(=O)OC(C)C)c1 [compound 930] | ≥ 70
Cc1ccc(NC(=O)OCC(Cl)(Cl)Cl)cc1C(=O)Nc1c(C)cc(C(F)(C(F)(F)F)C(F)(F)F)cc1C [compound 1933] | ≥ 70
Cn1nc(C(F)(F)F)cc1NC(=O)c1cccc(NC(=O)OCC(Cl)(Cl)Cl)c1 [compound 936] | ≥ 70
Cc1cc(C(F)(C(F)(F)F)C(F)(F)F)cc(C)c1NC(=O)c1cccc(NC(=O)OCCSC(C)C)c1 [compound 110] | ≥ 70
CC(=O)OCCOC(=O)Nc1cccc(C(=O)Nc2c(C)cc(C(F)(C(F)(F)F)C(F)(F)F)cc2C)c1 [compound 104] | ≥ 70
Cc1c(C(F)(C(F)(F)F)C(F)(F)F)cc(Cl)c(NC(=O)c2cccc(NC(=O)OCC(Cl)(Cl)Cl)c2)c1C [compound 214] | ≥ 70
Cc1cc(C(F)(C(F)(F)F)C(F)(F)F)cc(C)c1NC(=O)c1cccc(NC(=O)OCc2ccsc2)c1 [compound 160] | ≥ 70
Cc1cc(C(F)(C(F)(F)F)C(F)(F)F)cc(C)c1NC(=O)c1cccc(NC(=O)OC2CCOC2)c1 (stereo not drawn) [compound 154] | ≥ 70
CCc1cc(C(F)(C(F)(F)F)C(F)(F)F)ccc1NC(=O)c1cccc(NC(=O)OC(C)C)c1 [compound 168] | ≥ 70
Cc1cc(OS(=O)(=O)C(F)(F)F)c(C)cc1NC(=O)c1cccc(NC(=O)OCC(Cl)(Cl)Cl)c1 [compound 871] | ≥ 70
O=C(Nc1cccc(C(=O)Nc2c(Cl)cc(Cl)cc2C(F)(F)F)c1)OCC(Cl)(Cl)Cl [compound 897] | ≥ 70

Structure (SMILES) | mortality [%]
CCS(=O)(=O)CCOC(=O)Nc1cccc(C(=O)Nc2c(C)cc(C(F)(C(F)(F)F)C(F)(F)F)cc2C)c1 [compound 113] | ≥ 70
Cc1cc(C(F)(C(F)(F)F)C(F)(F)F)cc(C)c1NC(=O)c1cccc(NC(=O)OCc2cccs2)c1 [compound 159] | ≥ 70
Cc1cc(C(F)(C(F)(F)F)C(F)(F)F)cc(C)c1NC(=O)c1cccc(NC(=O)OCC2CCOC2)c1 (stereo not drawn) [Compound No. 158, N-(2,6-dimethyl-4-heptafluoroisopropyl)phenyl 3-[(tetrahydrofuran-3-yl)methoxycarbonylamino]benzamide] | ≥ 70
Cc1cc(Cl)cc(Cl)c1NC(=O)c1cccc(NC(=O)OCC(Cl)(Cl)Cl)c1 [compound 896] | ≥ 70
COC(=O)C(C)OC(=O)Nc1cccc(C(=O)Nc2c(C)cc(C(F)(C(F)(F)F)C(F)(F)F)cc2C)c1 (stereo not drawn) [compound 101] | ≥ 70
CCOCCOC(=O)Nc1cccc(C(=O)Nc2c(C)cc(C(F)(C(F)(F)F)C(F)(F)F)cc2C)c1 [compound 96] | ≥ 70
CCOCCCOC(=O)Nc1cccc(C(=O)Nc2c(C)cc(C(F)(C(F)(F)F)C(F)(F)F)cc2C)c1 [compound 99] | ≥ 70
Cc1cc(C(F)(C(F)(F)F)C(F)(F)F)cc(C)c1NC(=O)c1cccc(NC(=O)OCc2cccnc2)c1 [compound 162] | ≥ 70
Cc1cc(OC(F)(F)F)ccc1NC(=O)c1cccc(NC(=O)OCC(Cl)(Cl)Cl)c1 [compound 858] | ≥ 70
O=C(Nc1cccc(C(=O)Nc2ccc(C(F)(F)F)cc2C(F)(F)F)c1)OCCC(F)(F)F [compound 249] | ≥ 70
Cc1cc(C(F)(C(F)(F)F)C(F)(F)F)cc(C)c1NC(=O)c1cc(NC(=O)OCC(Cl)(Cl)Cl)cc[n+]1[O-] [compound 2167] | ≥ 70
Cc1c(NC(=O)c2cccc(NC(=O)OCC(Cl)(Cl)Cl)c2)ccc(C(F)(C(F)(F)F)C(F)(F)F)c1N [compound 203] | ≥ 70
O=C(Nc1cccc(C(=O)Nc2ccc(OC(C(F)(F)F)C(F)(F)F)nc2)c1)OCC(Cl)(Cl)Cl [compound 943] | ≥ 70
O=C(Nc1cccc(C(=O)Nc2c(Cl)cc(C(F)(F)F)cc2Br)c1)OCCC(F)(F)F [compound 238] | ≥ 70
Cc1cc(C(F)(C(F)(F)F)C(F)(F)F)cc(O)c1NC(=O)c1cccc(NC(=O)OCC(Cl)(Cl)Cl)c1 [compound 201] | ≥ 70
O=C(Nc1cccc(C(=O)Nc2ccc(Cl)cc2C(F)(F)F)c1)OCC(Cl)(Cl)Cl [compound 865] | ≥ 70
C#CCOC(=O)Nc1cccc(C(=O)Nc2c(C)cc(C(F)(C(F)(F)F)C(F)(F)F)cc2C)c1 [compound 77] | ≥ 70
Cc1cc(C(F)(C(F)(F)F)C(F)(F)F)ccc1NC(=O)c1cccc(NC(=O)OC(C)C)c1 [compound 3] | ≥ 70
CC(=O)CCOC(=O)Nc1cccc(C(=O)Nc2c(C)cc(C(F)(C(F)(F)F)C(F)(F)F)cc2C)c1 [compound 103] | ≥ 70
Cc1cc(C(F)(C(F)(F)F)C(F)(F)F)cc(C)c1NC(=O)c1cccc(NC(=O)OCCO)c1 [compound 94] | ≥ 70
Cc1cc(C(F)(C(F)(F)F)C(F)(F)F)ccc1NC(=O)c1cccc(NC(=O)OCC(C)C)c1 [compound 5] | ≥ 70
Cc1cc(C(F)(C(F)(F)F)C(F)(F)F)ccc1NC(=O)c1cccc(NC(=O)OC(C)(C)C)c1 [compound 7] | ≥ 70
O=C(Nc1cccc(C(=O)Nc2cc(C(F)(F)F)ccc2C(F)(F)F)c1)OCC(Cl)(Cl)Cl [compound 863] | ≥ 70
CC(=O)NCCOC(=O)Nc1cccc(C(=O)Nc2c(C)cc(C(F)(C(F)(F)F)C(F)(F)F)cc2C)c1 [compound 141] | ≥ 70
Cc1c(NC(=O)c2cccc(NC(=O)OCC(Cl)(Cl)Cl)c2)ccc(C(F)(C(F)(F)F)C(F)(F)F)c1NC(=O)OC(C)(C)C [compound 204] | ≥ 70
CC(C)OC(=O)Nc1cccc(C(=O)Nc2c(Cl)cc(C(F)(F)F)cc2Cl)c1 [compound 223] | ≥ 70
